# Reference: article PMC12370185
# Some of the results follow. For some assays here: At the low end of the ranking, values are background and their order means little.
# How the values were obtained:
# Conditions in all cases: 10 mM Tris-Cl pH 7.5, 50 mM NaCl, 1 mM DTT, 0.25 mg/ml BSA, 2 mM MgCl2, 0.025% Nonidet P-40, 5% glycerol; 28 nM nucleosome library; 10 min on ice then 30 min …; high values mean tight binding; double strand, one strand shown
# KLF4 + histone octamer = assay: EMSA with sequencing
# SOX2 + histone octamer = assay: EMSA with sequencing
# [1] = test system: c-MYC + MAX + histone octamer; assay: EMSA with sequencing
# OCT4 + histone octamer = assay: Pioneer-seq (competitive nucleosome EMSA with sequencing)
Sequence,binding signal (log2 relative supershift) (KLF4 + histone octamer),binding signal (log2 relative supershift) (SOX2 + histone octamer),binding signal (log2 relative supershift) [1],binding signal (log2 relative supershift) (OCT4 + histone octamer)
GATGGACCCTATACGCGGCTCTAGACTCAGGGCTCCTCCCTCAACCAGATCCAGCCTGACAGCTCCTCTGTCTCCACCTGGCCTCCCTGCCAGGCCTCCTCAGAGTTAACAGCGGCCTGGCCTCACCCTTGGCCAGCAGTTGCAAGTCCAAACAGGCTTCGCCCACATTCCCTGGCTGCTCTCCAGCCCGCAGCAGAGACAACAAAGTTCTGCCAGTCGGATAGTGTTCC,2.42,0.244,0.427,-0.385
GATGGACCCTATACGCGGCGTAGGCTCTGGCCCCTTTCCTCCTGCTCTTCCTCTGAGTGCCTCCACCCTTATTCACAGGCTCACTCTTGTCTCAGAGCCTCTGCCTAGACTGCTCTTCCCAGCCTCCAAACCCACTTTCCAGGGCTGATCTGCATTCACACTTCAATGTTCTTCTCTGATCACCCACCCACCCCACCTCAAGAACAATACTGCCAGTCGGATAGTGTTCC,2.68,2.34,0.525,-1.04
GATGGACCCTATACGCGGCACACATGCACATTCATGCAAACACACACATACACATGCATGCACACACATGCAAACGTGCATGCATACACTTGTGCCAGCGTACCCACATGCACACACCTCCACACGCTCACTCATACATTCACACAATACACATGCACATGTATGCACATCCCCACCCATATGGACCCTGATTTCATGTGCTCACGCGCCTGCCAGTCGGATAGTGTTCC,2.02,0.0124,1.51,-0.0214
GATGGACCCTATACGCGGCCAAAAGGGGCTGTGGTATCACAGCAGCCCATGAATACATGAGGCATGGTCATGTATAGAAGGACCTCCAGCCCTGTCAGTGAAGGCTGCAAGGAAGGGTGATGGAGCTGCTGCTGCTTAAACAAGAGAAATACTGAGTGCTTTCCTTGCACATATCATTGGCATTTGCCTGCCTCCACATTTATTTCATCCTGCCAGTCGGATAGTGTTCC,1.27,0.184,0.0546,-0.398
GATGGACCCTATACGCGGCCAAGCCCATAGATGAATAGAATGACAGGGAAGGGCATCTCAGTAGAAGAGAAATTTCAACAAGTGTATGGAAGTACAAGAGAGTAGCACAAGGACAGGATGACACAGCCCAAGTACCTAGAGCCAATCTGCACATGGAAAATTCTAAGAGGTGGGTGGAGGATGGGGAGGGAGCATGGCCCTAAAAATGAGTGCCAGTCGGATAGTGTTCC,2.69,0.744,0.432,-0.265
